# For part of these data: One purity is given for all peptides; the source may state it once. Non-standard residues stand in square brackets, D forms with d.
# Test: general procedure: Fmoc solid-phase peptide synthesis; Fmoc Rink Amide MBHA resin; HBTU or DIC, HOBT added
# Conditions: whole synthesis, scale 0.25 mmol, 1:1 TFA
Substance,isolated mass [mg],isolated yield [%]
Ac-[dY]AEGTFISDYSIAMDAIHQQDFVNWLLAQK-NH2 (SMILES CC[C@H](C)[C@H](NC(=O)[C@H](C)NC(=O)[C@H](CC(=O)O)NC(=O)[C@H](CCSC)NC(=O)[C@H](C)NC(=O)[C@@H](NC(=O)[C@H](CO)NC(=O)[C@H](Cc1ccc(O)cc1)NC(=O)[C@H](CC(=O)O)NC(=O)[C@H](CO)NC(=O)[C@@H](NC(=O)[C@H](Cc1ccccc1)NC(=O)[C@@H](NC(=O)CNC(=O)[C@H](CCC(=O)O)NC(=O)[C@H](C)NC(=O)[C@@H](Cc1ccc(O)cc1)NC(C)=O)[C@@H](C)O)[C@@H](C)CC)[C@@H](C)CC)C(=O)N[C@@H](Cc1c[nH]cn1)C(=O)N[C@@H](CCC(N)=O)C(=O)N[C@@H](CCC(N)=O)C(=O)N[C@@H](CC(=O)O)C(=O)N[C@@H](Cc1ccccc1)C(=O)N[C@H](C(=O)N[C@@H](CC(N)=O)C(=O)N[C@@H](Cc1c[nH]c2ccccc12)C(=O)N[C@@H](CC(C)C)C(=O)N[C@@H](CC(C)C)C(=O)N[C@@H](C)C(=O)N[C@@H](CCC(N)=O)C(=O)N[C@@H](CCCCN)C(N)=O)C(C)C),80,9

# Same assay, conditions: whole synthesis, scale 0.25 mmol, 1:2 TFA
Substance,isolated mass [mg],isolated yield [%]
Ac-2-Cl-(D)Phe-Ala-Glu-Gly-Thr-Phe-Ile-Ser-Asp-Tyr-Ser-Ile-Ala-Met-Asp-Lys-Ile-His-Gln-Gln-Asp-Phe-Val-Asn-Trp-Leu-Leu-Ala-Gln-Lys-NH2,94,9.7
Ac-2-F-(D)Phe-Ala-Glu-Gly-Thr-Phe-Ile-Ser-Asp-Tyr-Ser-Ile-Ala-Met-Asp-Lys-Ile-His-Gln-Gln-Asp-Phe-Val-Asn-Trp-Leu-Leu-Ala-Gln-Lys-NH2,92,9.5
"Ac-3,4,5,F3-(D)Phe-Ala-Glu-Gly-Thr-Phe-Ile-Ser-Asp-Tyr-Ser-Ile-Ala-Met-Asp-Lys-Ile-His-Gln-Gln-Asp-Phe-Val-Asn-Trp-Leu-Leu-Ala-Gln-Lys-NH2",30,3
"Ac-3,5-DiF-(D)Phe-Ala-Glu-Gly-Thr-Phe-Ile-Ser-Asp-Tyr-Ser-Ile-Ala-Met-Asp-Lys-Ile-His-Gln-Gln-Asp-Phe-Val-Asn-Trp-Leu-Leu-Ala-Gln-Lys-NH2",64,6.6
Ac-3-Cl-(D)Phe-Ala-Glu-Gly-Thr-Phe-Ile-Ser-Asp-Tyr-Ser-Ile-Ala-Met-Asp-Lys-Ile-His-Gln-Gln-Asp-Phe-Val-Asn-Trp-Leu-Leu-Ala-Gln-Lys-NH2,70,7.2
Ac-3-F-(D)Phe-Ala-Glu-Gly-Thr-Phe-Ile-Ser-Asp-Tyr-Ser-Ile-Ala-Met-Asp-Lys-Ile-His-Gln-Gln-Asp-Phe-Val-Asn-Trp-Leu-Leu-Ala-Gln-Lys-NH2,100,10.4
Ac-4-Cl-(D)Phe-Ala-Glu-Gly-Thr-Phe-Ile-Ser-Asp-Tyr-Ser-Ile-Ala-Met-Asp-Lys-Ile-His-Gln-Gln-Asp-Phe-Val-Asn-Trp-Leu-Leu-Ala-Gln-Lys-NH2,96,10
Ac-(D)-3-Pya-Ala-Glu-Gly-Thr-Phe-Ile-Ser-Asp-Tyr-Ser-Ile-Ala-Met-Asp-Lys-Ile-His-Gln-Gln-Asp-Phe-Val-Asn-Trp-Leu-Leu-Ala-Gln-Lys-NH2,40,4
Ac-(D)Phe-Ala-Glu-Gly-Thr-Phe-Ile-Ser-Asp-Tyr-Ser-Ile-Ala-Met-Asp-Lys-Ile-His-Gln-Gln-Asp-Phe-Val-Asn-Trp-Leu-Leu-Ala-Gln-Lys-NH2,80,8.3
Ac-(D)Trp-Ala-Glu-Gly-Thr-Phe-Ile-Ser-Asp-Tyr-Ser-Ile-Ala-Met-Asp-Lys-Ile-His-Gln-Gln-Asp-Phe-Val-Asn-Trp-Leu-Leu-Ala-Gln-Lys-NH2,62,6.4
DesNH2-Phe-Ala-Glu-Gly-Thr-Phe-Ile-Ser-Asp-Tyr-Ser-Ile-Ala-Met-Asp-Lys-Ile-His-Gln-Gln-Asp-Phe-Val-Asn-Trp-Leu-Leu-Ala-Gln-Lys-NH2,120,12.7

# Test: general procedure: Fmoc solid-phase peptide synthesis; Fmoc Rink Amide MBHA resin (0.45 meq/g); Fmoc Gln(Trt) Wang resin; HBTU or DIC, HOBT added
# Conditions: conjugation step, 280 nm, TFA
row,Substance,final HPLC purity [%]
1,"Ac-(D)Tyr-Ala-Glu-Gly-Thr-Phe-Ile-Ser-Asp-Tyr-Ser-Ile-Ala-Met-Asp-Ala-Ile-His-Gln-Gln-Asp-Phe-Val-Asn-Trp-Leu-Leu-Ala-Gln-Lys (epsilon-SSA-PEGm(12,000))-NH2 (YAEGTFISDYSIAMDAIHQQDFVNWLLAQK; acetyl, amide, D-residue, PEG 12kDa)",>98
2,"Ac-(D)Tyr-Ala-Glu-Gly-Thr-Phe-Ile-Ser-Asp-Tyr-Ser-Ile-Ala-Met-Asp-Ala-Ile-His-Gln-Gln-Asp-Phe-Val-Asn-Trp-Leu-Leu-Ala-Gln-Lys (epsilon-SSA-PEGm(20,000))-NH2 (YAEGTFISDYSIAMDAIHQQDFVNWLLAQK; acetyl, amide, D-residue, PEG 20kDa)",>98
3,"Ac-(D)Tyr-Ala-Glu-Gly-Thr-Phe-Ile-Ser-Asp-Tyr-Ser-Ile-Ala-Met-Asp-Ala-Ile-His-Gln-Gln-Asp-Phe-Val-Asn-Trp-Leu-Leu-Ala-Gln-Lys (epsilon-SSA-PEGm(30,000))-NH2 (YAEGTFISDYSIAMDAIHQQDFVNWLLAQK; acetyl, amide, D-residue, PEG 30kDa)",>98

# Same assay, conditions: conjugation step, TFA
row,Substance,conjugation yield [%]
1,"Ac-(D)Tyr-Ala-Glu-Gly-Thr-Phe-Ile-Ser-Asp-Tyr-Ser-Ile-Ala-Met-Asp-Ala-Ile-His-Gln-Gln-Asp-Phe-Val-Asn-Trp-Leu-Leu-Ala-Gln-Lys (epsilon-SSA-PEGm(12,000))-NH2 (YAEGTFISDYSIAMDAIHQQDFVNWLLAQK; acetyl, amide, D-residue, PEG 12kDa)",38.1
2,"Ac-(D)Tyr-Ala-Glu-Gly-Thr-Phe-Ile-Ser-Asp-Tyr-Ser-Ile-Ala-Met-Asp-Ala-Ile-His-Gln-Gln-Asp-Phe-Val-Asn-Trp-Leu-Leu-Ala-Gln-Lys (epsilon-SSA-PEGm(20,000))-NH2 (YAEGTFISDYSIAMDAIHQQDFVNWLLAQK; acetyl, amide, D-residue, PEG 20kDa)",54.9
3,"Ac-(D)Tyr-Ala-Glu-Gly-Thr-Phe-Ile-Ser-Asp-Tyr-Ser-Ile-Ala-Met-Asp-Ala-Ile-His-Gln-Gln-Asp-Phe-Val-Asn-Trp-Leu-Leu-Ala-Gln-Lys (epsilon-SSA-PEGm(30,000))-NH2 (YAEGTFISDYSIAMDAIHQQDFVNWLLAQK; acetyl, amide, D-residue, PEG 30kDa)",85.0
